US7807844B2 (Nihon University, priority 2003, dated 2010)
Strings that start with PEPTIDE1 are HELM notation: dots part the residues, brackets hold end groups and non-standard residues.

Experiment: general procedure: Fmoc solid-phase peptide synthesis in flow; Fmoc-β-alanine-CLEAR acid resin, 0.50 meq/g (Peptide Institute); Fmoc-β-alanine-Wang resin; HATU/DIEA
Conditions: whole synthesis

With “PEPTIDE1{[FITC].[bAla].[Im].[Py].[Py].[bAla].[Im].[Py].[Py].[gAbu].[Py].[Py].[Py].[bAla].[Py].[Py].[bAla].[Dp]}$$$$V2.0” the isolated mass was 7 mg and the isolated yield (scale of the general procedure 0.1 mmol) was 3%.
